In all, about 44,000 compounds went through this assay and fewer than 10 were called active. These results got no clear call from the source, so the numbers are uncertain. Calls follow the shape of the dose curve; as a rule, active = well fitted curve in the direction sought with a large enough effect; inconclusive = small, poorly fitted or top-dose-only effect, or another doubt; inactive = no such curve, though single readings can be large or run the other way. Some of these compounds have results that are not shown, active ones among them.
What follows are molecules tested against Galactokinase (Homo sapiens) (UniProt P51570) (assay: qHTS Assay for Inhibitors of Human Galactokinase (GALK): NCGC Sytravon Library Screen). Conditions: recombinant GALK, Kinase-Glo ATP luminescence, 1 h.
Text: Inherited deficiency of galactose-1-phosphate uridyltransferase (GALT) can result in a potentially lethal disorder called Classic Galactosemia (OMIM 230400). Several lines of evidence indicate that an elevated level of galactose-1-phosphate (gal-1-p), the product of galactokinase (GALK), is a major, if not sole, pathogenic mechanism in patients with classic galactosemia. Therefore, finding inhibitors of GALK is a potential novel therapy for this inherent metabolic disease and is the long term goal of this project. This screen is run against the NCGC Sytravon compound library collection. GALK (provided by Kent Lai) was assayed using ATP and D-(+)-Galactose (Sigma-Aldrich cat# G0750) as substrates. Promega Kinase-Glo Plus technology was used to detect kinase activity. […]
NCGC Assay Protocol Summary: Three uL/well of ATP-buffer solution (35 uM ATP, 20mM HEPES pH8.0, 5 mM MgCl2, 60 mM NaCl, 1 mM DTT, 0.01% BSA final concentration) was dispensed into 1536-well, assay plates (Greiner, solid white medium-binding plates) with Aurora Discovery BioRAPTR Flying Reagent Dispenser (FRD; Beckton-Dickenson). […] Luminescence was detected with the ViewLux plate reader (Perkin Elmer, Waltham, MA) after 10 min incubation using a 1 sec exposure time and 2x binning.

By UniProt entry, the sequences of proteins in these tests, tags left out.
UniProt P51570, whole entry: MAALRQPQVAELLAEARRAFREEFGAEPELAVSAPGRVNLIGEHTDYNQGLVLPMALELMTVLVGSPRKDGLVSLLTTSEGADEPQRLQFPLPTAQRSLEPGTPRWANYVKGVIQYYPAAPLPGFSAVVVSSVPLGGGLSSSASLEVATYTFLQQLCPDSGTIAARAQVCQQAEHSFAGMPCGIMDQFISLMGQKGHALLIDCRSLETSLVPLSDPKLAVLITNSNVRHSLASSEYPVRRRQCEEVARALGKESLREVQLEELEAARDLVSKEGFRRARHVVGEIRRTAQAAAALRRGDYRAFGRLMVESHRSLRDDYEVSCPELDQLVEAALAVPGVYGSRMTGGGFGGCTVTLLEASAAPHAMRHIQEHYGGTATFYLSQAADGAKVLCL

Row | Compound | Potency
1 | CCOc1cccc(C(=O)NCC2(N(C)C)CCCCC2)c1 | inconclusive: 1120 nM

From PubChem BioAssay AID1347072 (National Center for Advancing Translational Sciences (NCATS), 2019)
